Read-outs that look alike come from different tables or passages of the source. No constants are given. Whether binding was seen depends on the method and setting. In cells and extracts the contact can be indirect. Some results given as binding are weak or reduced against the parent protein; the word gives no strength. For part of these data: Where a sequence is shown, tags or fusion partners need not be part of it.
T1: ALKBH2(H171A/D173A) (human) (UniProt Q6NS38)
T1 sequence: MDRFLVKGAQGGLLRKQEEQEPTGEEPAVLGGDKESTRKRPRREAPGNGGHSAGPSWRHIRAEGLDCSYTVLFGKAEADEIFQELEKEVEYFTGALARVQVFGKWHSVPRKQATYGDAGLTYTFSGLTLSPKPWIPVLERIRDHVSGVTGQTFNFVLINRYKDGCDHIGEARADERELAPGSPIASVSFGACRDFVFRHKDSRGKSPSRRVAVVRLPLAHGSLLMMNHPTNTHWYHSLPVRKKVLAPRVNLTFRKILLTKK

By UniProt entry, the sequences of proteins in these tests, tags left out. Where a name states a change or a piece, a line headed by the entry shows the natural chain unless it says otherwise.
UniProt P43360, whole entry: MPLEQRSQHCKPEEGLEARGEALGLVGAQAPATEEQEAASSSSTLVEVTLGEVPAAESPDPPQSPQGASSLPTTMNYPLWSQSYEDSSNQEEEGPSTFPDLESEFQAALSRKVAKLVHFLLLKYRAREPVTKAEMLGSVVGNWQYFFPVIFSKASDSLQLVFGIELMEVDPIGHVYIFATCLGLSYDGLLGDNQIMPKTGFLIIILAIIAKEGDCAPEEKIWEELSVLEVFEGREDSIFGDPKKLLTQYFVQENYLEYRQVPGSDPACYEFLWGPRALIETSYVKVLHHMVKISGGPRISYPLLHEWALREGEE
UniProt Q13263, whole entry: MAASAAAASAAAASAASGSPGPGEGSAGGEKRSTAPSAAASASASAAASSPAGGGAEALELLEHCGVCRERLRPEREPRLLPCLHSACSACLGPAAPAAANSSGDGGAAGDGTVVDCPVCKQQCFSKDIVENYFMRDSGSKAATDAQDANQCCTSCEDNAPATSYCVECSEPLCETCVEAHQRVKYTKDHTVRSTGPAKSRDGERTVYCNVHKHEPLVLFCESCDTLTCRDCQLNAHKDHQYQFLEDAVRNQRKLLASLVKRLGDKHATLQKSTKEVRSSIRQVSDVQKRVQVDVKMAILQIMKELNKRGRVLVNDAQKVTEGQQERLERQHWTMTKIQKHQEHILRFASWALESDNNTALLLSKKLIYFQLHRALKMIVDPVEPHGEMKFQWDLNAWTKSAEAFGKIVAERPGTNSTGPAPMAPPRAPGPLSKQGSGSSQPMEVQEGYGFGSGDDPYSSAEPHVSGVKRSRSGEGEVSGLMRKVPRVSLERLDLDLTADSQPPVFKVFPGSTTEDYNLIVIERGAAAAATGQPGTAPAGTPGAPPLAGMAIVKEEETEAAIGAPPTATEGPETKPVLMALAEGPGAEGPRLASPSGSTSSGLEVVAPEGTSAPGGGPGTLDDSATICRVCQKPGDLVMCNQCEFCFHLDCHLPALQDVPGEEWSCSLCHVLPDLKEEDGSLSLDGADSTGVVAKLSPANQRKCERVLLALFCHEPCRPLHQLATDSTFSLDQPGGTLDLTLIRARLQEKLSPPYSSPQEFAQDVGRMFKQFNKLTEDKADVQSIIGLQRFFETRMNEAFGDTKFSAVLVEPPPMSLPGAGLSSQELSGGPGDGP

T2: Flag-ALKBH2 (HEK293T) (human) (UniProt Q6NS38)
T2 sequence: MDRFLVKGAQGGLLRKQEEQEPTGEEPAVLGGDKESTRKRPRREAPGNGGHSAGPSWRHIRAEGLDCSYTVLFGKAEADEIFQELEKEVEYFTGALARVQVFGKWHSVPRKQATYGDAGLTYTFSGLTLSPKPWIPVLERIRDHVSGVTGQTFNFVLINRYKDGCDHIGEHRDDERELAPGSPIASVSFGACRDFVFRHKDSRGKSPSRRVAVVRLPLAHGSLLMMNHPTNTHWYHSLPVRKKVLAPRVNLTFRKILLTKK

T3: Flag-TRIM24 (UniProt O15164)
T3 sequence: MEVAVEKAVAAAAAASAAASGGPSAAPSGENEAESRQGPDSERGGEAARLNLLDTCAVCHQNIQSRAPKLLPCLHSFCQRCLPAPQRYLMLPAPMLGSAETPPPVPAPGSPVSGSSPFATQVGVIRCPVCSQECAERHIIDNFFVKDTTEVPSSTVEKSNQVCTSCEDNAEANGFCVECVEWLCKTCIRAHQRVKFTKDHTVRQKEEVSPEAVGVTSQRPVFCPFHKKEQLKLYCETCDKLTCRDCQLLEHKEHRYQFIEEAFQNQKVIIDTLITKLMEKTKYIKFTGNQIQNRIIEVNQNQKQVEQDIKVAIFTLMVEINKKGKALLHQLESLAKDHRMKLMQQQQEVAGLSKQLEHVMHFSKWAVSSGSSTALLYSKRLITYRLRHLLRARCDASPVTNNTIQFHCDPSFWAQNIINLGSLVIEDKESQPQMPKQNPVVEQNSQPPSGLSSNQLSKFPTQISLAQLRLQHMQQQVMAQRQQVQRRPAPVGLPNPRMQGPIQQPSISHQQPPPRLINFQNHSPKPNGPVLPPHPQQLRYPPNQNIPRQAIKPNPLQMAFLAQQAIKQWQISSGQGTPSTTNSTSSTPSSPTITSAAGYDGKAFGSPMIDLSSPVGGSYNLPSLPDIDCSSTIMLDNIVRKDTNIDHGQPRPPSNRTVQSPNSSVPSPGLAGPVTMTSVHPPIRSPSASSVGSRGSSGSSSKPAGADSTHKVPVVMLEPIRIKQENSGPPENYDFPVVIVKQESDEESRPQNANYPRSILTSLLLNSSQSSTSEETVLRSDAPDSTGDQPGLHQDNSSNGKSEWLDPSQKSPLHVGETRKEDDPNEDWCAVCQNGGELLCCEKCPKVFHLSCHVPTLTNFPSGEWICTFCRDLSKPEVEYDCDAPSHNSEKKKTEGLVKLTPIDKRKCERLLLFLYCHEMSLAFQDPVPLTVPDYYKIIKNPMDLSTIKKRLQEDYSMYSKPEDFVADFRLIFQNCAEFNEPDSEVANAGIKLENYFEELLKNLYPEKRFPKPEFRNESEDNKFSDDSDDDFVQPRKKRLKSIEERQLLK


Tests used:
Assay in all cases: co-IP
[1] = target: T1, ALKBH2(H171A/D173A) (human)
[2] = target: T2, Flag-ALKBH2 (HEK293T) (human)
[3] = target: Flag-MAGEA6 (WT) (human (cDNA from A549 cells)) (UniProt P43360)
[4] = target: T3, Flag-TRIM24
[5] = target: T2, Flag-ALKBH2 (HEK293T) (human); remark: listed apart in the source
[6] = target: Flag-MAGEA6 (WT) (human (cDNA from A549 cells)) (UniProt P43360); remark: listed apart in the source
[7] = target: Flag-MAGEA6 K211R (human (cDNA from A549 cells)) (UniProt P43360)
[8] = target: T3, Flag-TRIM24; remark: listed apart in the source
[9] = target: Flag-TRIM28 (HEK293T) (human) (UniProt Q13263)

Molecule	binding [1]	binding [2]	binding [3]	binding [4]	binding [5]	binding [6]	binding [7]	binding [8]	binding [9]
endogenous TRIM28 (HEK293T) (from UniProt Q13263 1-835)	binds	binds	binds	binds	binds				
HA-ALKBH2 (HEK293T) (protein, UniProt Q6NS38 1-261) MDRFLVKGAQGGLLRKQEEQEPTGEEPAVLGGDKESTRKRPRREAPGNGGHSAGPSWRHIRAEGLDCSYTVLFGKAEADEIFQELEKEVEYFTGALARVQVFGKWHSVPRKQATYGDAGLTYTFSGLTLSPKPWIPVLERIRDHVSGVTGQTFNFVLINRYKDGCDHIGEHRDDERELAPGSPIASVSFGACRDFVFRHKDSRGKSPSRRVAVVRLPLAHGSLLMMNHPTNTHWYHSLPVRKKVLAPRVNLTFRKILLTKK						binds	binds	no binding	binds

From doi:10.1101/2025.11.21.689678 (bioRxiv, 2025)
